Test results taken from patent US20160046582A1 (Teva Pharmaceutical Industries Ltd., priority 2014, published 2016).

Assay: HPLC NEA and non-polar impurities (3-HLAQ, SPIRO-LAQ) in drug substance, Example 20
Details: laquinimod sodium drug substance; for NEA and Non-Polar Imp.: Any Other Impurity / NEA and Non-Polar Imp.: NEA: spec NMT 0.10; for NEA and Non-Polar Imp.: Total: spec NMT 0.50

With `CCN(C(=O)c1c([O-])c2c(Cl)cccc2n(C)c1=O)c1ccccc1.[Na+]` [Batch 2] the “NEA and Non-Polar Imp.: Any Other Impurity” value was “LT 0.05%”, the “NEA and Non-Polar Imp.: NEA” value was “LT 0.05%” and the “NEA and Non-Polar Imp.: Total” value was “LT 0.05%”.

For `CCN(C(=O)c1c([O-])c2c(Cl)cccc2n(C)c1=O)c1ccccc1.[Na+]` [Batch 3], the “NEA and Non-Polar Imp.: Any Other Impurity” value was “LT 0.02%”, the “NEA and Non-Polar Imp.: NEA” value was “LT 0.02%” and the “NEA and Non-Polar Imp.: Total” value was “LT 0.05%”.

For `CCN(C(=O)c1c([O-])c2c(Cl)cccc2n(C)c1=O)c1ccccc1.[Na+]` [Batch 4], the “NEA and Non-Polar Imp.: Any Other Impurity” value was “LT 0.02%”, the “NEA and Non-Polar Imp.: NEA” value was “LT 0.02%” and the “NEA and Non-Polar Imp.: Total” value was “LT 0.05%”.

In the case of `CCN(C(=O)c1c([O-])c2c(Cl)cccc2n(C)c1=O)c1ccccc1.[Na+]` [Batch 5], the “NEA and Non-Polar Imp.: Any Other Impurity” value is reported as “LT 0.02%”, the “NEA and Non-Polar Imp.: NEA” value is reported as “LT 0.02%” and the “NEA and Non-Polar Imp.: Total” value is reported as “LT 0.06%”.

For `CCN(C(=O)c1c([O-])c2c(Cl)cccc2n(C)c1=O)c1ccccc1.[Na+]` [Batch 6], the “NEA and Non-Polar Imp.: Any Other Impurity” value was “LT 0.02%”, the “NEA and Non-Polar Imp.: NEA” value was “LT 0.02%” and the “NEA and Non-Polar Imp.: Total” value was “LT 0.06%”.

With `CCN(C(=O)c1c([O-])c2c(Cl)cccc2n(C)c1=O)c1ccccc1.[Na+]` [Batch 7] the “NEA and Non-Polar Imp.: Any Other Impurity” value was “LT 0.02%”, the “NEA and Non-Polar Imp.: NEA” value was “LT 0.02%” and the “NEA and Non-Polar Imp.: Total” value was “LT 0.06%”.

With `CCN(C(=O)c1c([O-])c2c(Cl)cccc2n(C)c1=O)c1ccccc1.[Na+]` [Batch 8] the “NEA and Non-Polar Imp.: Any Other Impurity” value was “LT 0.02%”, the “NEA and Non-Polar Imp.: NEA” value was “LT 0.02%” and the “NEA and Non-Polar Imp.: Total” value was “LT 0.06%”.

With `CCN(C(=O)c1c([O-])c2c(Cl)cccc2n(C)c1=O)c1ccccc1.[Na+]` [Batch 9] the “NEA and Non-Polar Imp.: Any Other Impurity” value was “LT 0.02%”, the “NEA and Non-Polar Imp.: NEA” value was “LT 0.02%” and the “NEA and Non-Polar Imp.: Total” value was “LT 0.02%”.

For `CCN(C(=O)c1c([O-])c2c(Cl)cccc2n(C)c1=O)c1ccccc1.[Na+]` [Batch 10], the “NEA and Non-Polar Imp.: Any Other Impurity” value was “LT 0.02%”, the “NEA and Non-Polar Imp.: NEA” value was “LT 0.02%” and the “NEA and Non-Polar Imp.: Total” value was “LT 0.02%”.

In the case of `CCN(C(=O)c1c([O-])c2c(Cl)cccc2n(C)c1=O)c1ccccc1.[Na+]` [Batch 11], the “NEA and Non-Polar Imp.: Any Other Impurity” value is reported as “LT 0.02%”, the “NEA and Non-Polar Imp.: NEA” value is reported as “LT 0.02%” and the “NEA and Non-Polar Imp.: Total” value is reported as “LT 0.02%”.

In the case of `CCN(C(=O)c1c([O-])c2c(Cl)cccc2n(C)c1=O)c1ccccc1.[Na+]` [Batch 12], the “NEA and Non-Polar Imp.: Any Other Impurity” value is reported as “LT 0.02%”, the “NEA and Non-Polar Imp.: NEA” value is reported as “LT 0.02%” and the “NEA and Non-Polar Imp.: Total” value is reported as “LT 0.02%”.
